Screening data, single-dose tests

From ChEMBL document CHEMBL3988442, “University of Dundee, Small-Polar-MMV Screening Library” (2021).

Mtb cholesterol medium: 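Phenotypic screen: M. tuberculosis growth, cholesterol and DPPC medium, 4 days; the read-out is not stated. Tested at 50 µM. Direction is inferred from retests: higher values go with more growth inhibition. Of about 69,000 compounds tested this way, about 370 (0.54%) reached 50% or more in at least one test.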
Mtb glucose medium: 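Whole-cell growth test on Mycobacterium tuberculosis, read after 3 days in glucose-containing 7H9 medium; the read-out is not stated. Tested at 50 µM. Higher reads as more growth inhibition (inferred: compounds with an IC50 in retests scored well above the rest). About 69,000 compounds were tested under these conditions; 1.1% (about 760) showed 50% or more at least once.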

Values are the deposited “Percent Effect”, in %. The record does not define 0% and 100%; most values in the screen are far below 50% and negative numbers occur (in some assays of this library far below -100). This is an unselected part of the compounds tested. Two or more numbers in one place are separate tests of the same structure; such repeats can differ widely.

Result for Cc1cc(C#N)ccc1S(=O)(=O)N1CCN(C)Cc2ccccc21 was Mtb cholesterol medium: 11.32%; Mtb glucose medium: 12.49%.
Result for Cn1cc(Cl)c(CN(Cc2ccsc2)CC2CCCO2)n1 (configuration not stated) was Mtb cholesterol medium: -19.44%; Mtb glucose medium: -5.168%.
Result for CCCc1nc(CNc2ccc(F)c(F)c2)no1 was Mtb cholesterol medium: 29.33%; Mtb glucose medium: 10.29%.
Result for CCN1CCCC(O)(c2nc(C)c(CCOc3ccccc3F)s2)CC1 (configuration not stated) was Mtb cholesterol medium: -0.3968%; Mtb glucose medium: -22.26%.
Result for O=C(O)C(F)(F)F.O=C(O)C(F)(F)F.[H][C@@]12COC[C@]1(COc1cccnc1)CN(Cc1ccsc1)C2 was Mtb cholesterol medium: -27.76%; Mtb glucose medium: -31.04%.
Result for CNc1cc(C2CCCN2C(=O)CCc2cnn(C)c2C)ccn1 (configuration not stated) was Mtb cholesterol medium: -12.94%; Mtb glucose medium: 0.5534%.
Result for O=C(c1ccc(S(=O)(=O)NCc2ccon2)cc1)N1CCNCC1 was Mtb cholesterol medium: -4.078%; Mtb glucose medium: -19.29%.
Result for CC(C)c1cc2c(O)nc(CSCC(=O)NCc3ccccn3)nc2s1 was Mtb cholesterol medium: 13.34% and 6.789%; Mtb glucose medium: -12.45%.
Result for CN(C)C(=O)CN1CCCCC1c1nc(N)ncc1-c1ccc(Cl)cc1 (configuration not stated) was Mtb cholesterol medium: -8.176%; Mtb glucose medium: 7.98%.
Result for CCS(=O)(=O)N1CCOC2(CCCN(c3cccc(C#N)c3)C2)C1 (configuration not stated) was Mtb cholesterol medium: 4.873%; Mtb glucose medium: 2.917% and 1.438%.
Result for CC(C)c1ccc(-c2nonc2N)cc1 was Mtb cholesterol medium: 22.43%; Mtb glucose medium: 22.38%.
Result for CCc1nccn1CCC(=O)N1CCN(c2ccccc2C)CC1C (configuration not stated) was Mtb cholesterol medium: 2.428%; Mtb glucose medium: 2.082%.
Result for CNC(=O)C1CN(C(=O)c2ccncc2)CCN(S(C)(=O)=O)C1 (configuration not stated) was Mtb cholesterol medium: -1.349% and -6.816%; Mtb glucose medium: -6.606%.
Result for CCc1nc(C)c(C(C)N(C)CCOC)s1 (configuration not stated) was Mtb cholesterol medium: -24.26%; Mtb glucose medium: -5.1% and 10.57%.
Result for CC1CC2(CCN(C(=O)c3csnn3)CC2)c2ccccc21 (configuration not stated) was Mtb cholesterol medium: -12.82%; Mtb glucose medium: 1.93% and 27.74%.
Result for Cn1c(-c2ccccc2)nn(CCNS(=O)(=O)c2ccccc2Cl)c1=O was Mtb cholesterol medium: -13.87%; Mtb glucose medium: -6.341% and 0.7942%.
Result for Cc1ccc2cccc(C(=O)NCC3CCN(C(C)C)C3)c2n1 (configuration not stated) was Mtb cholesterol medium: 1.381%; Mtb glucose medium: 28.36%.
Result for OC(CN1CCC(c2ccn[nH]2)CC1)c1cccc(F)c1 (configuration not stated) was Mtb cholesterol medium: -13.14%; Mtb glucose medium: -14.53%.
Result for COc1cccc(C2CC(=O)Nc3nc(N4CCCCC4)sc32)c1OC (configuration not stated) was Mtb cholesterol medium: 8.359%; Mtb glucose medium: 50.93%.
Result for CC(C)NC(=O)c1nnn(-c2cccc(C(F)(F)F)c2)c1C1CC1 was Mtb cholesterol medium: 7.694%; Mtb glucose medium: 3.528% and 1.386%.
Result for CCN(C)S(=O)(=O)NCC(O)c1cc2ccccc2s1 (configuration not stated) was Mtb cholesterol medium: 16.09%; Mtb glucose medium: 23.35%.
Result for O=C(CN1CCN(C(=O)c2cccc(-c3ccoc3)c2)CC1)C1CC1 was Mtb cholesterol medium: -3.776%; Mtb glucose medium: 15.83%.
Result for COCc1ncn(Cc2nc(-c3ccc(OC)cc3F)oc2C)n1 was Mtb cholesterol medium: -24.67%; Mtb glucose medium: -81%.
Result for CN1Cc2c(C(=O)Nc3cccnc3)ncn2-c2ccccc2S1(=O)=O.O=C(O)C(F)(F)F was Mtb cholesterol medium: 2.437%; Mtb glucose medium: 7.301%.
Result for CNC(=O)C1CCN(CC(=O)Nc2cc(C(C)C)no2)CC1 was Mtb cholesterol medium: -18.2%; Mtb glucose medium: -4.131%.
Result for Cc1ccc(CNCc2nccn2C)c(OC(C)(C)C)c1 was Mtb cholesterol medium: 21.62%; Mtb glucose medium: 14.74%.
Result for O=C(NC1CC1)C1(Cc2cc(-c3ccc(F)cc3F)no2)CCOCC1 was Mtb cholesterol medium: 5.388%; Mtb glucose medium: 1.742%.
Result for CN(C)C(=O)CN1CCN(Cc2coc(-c3cccc(F)c3)n2)CC1 was Mtb cholesterol medium: -21.92%; Mtb glucose medium: -2.449%.
Result for CC(C(=O)NCc1ccnc(OC2CCCC2)c1)n1cncn1 (configuration not stated) was Mtb cholesterol medium: 2.867%; Mtb glucose medium: -1.058% and -10.43%.
Result for O=C(O)C(F)(F)F.[H][C@@]12CN(CC3CCOC3)C[C@]1([H])OCCN2c1cccnc1 (some centres not stated) was Mtb cholesterol medium: 6.157%; Mtb glucose medium: 7.02%.
Result for COCCCN(C)C1CCCN(Cc2noc(C3CC3)n2)C1 (configuration not stated) was Mtb cholesterol medium: -15.27%; Mtb glucose medium: -6.305% and -16.22%.
Result for CCCN(C)C(=O)c1ccc2c(c1)[nH]c(=O)n2CCOCC was Mtb cholesterol medium: -17.21%; Mtb glucose medium: -3.185%.